According to PubChem BioAssay AID256 (DTP/NCI, 2004):
The list shows only some results of the screen, not a fair sample: its compounds were picked by chemical class. Not every dose and run of a compound is shown. T/C is the treated group as % of the vehicle group. Some doses have a count of surviving animals in place of a T/C: the source files T/C as zero there, which appears to mark a toxic dose or a test without result, not a measured value. Some doses without a T/C left all or most animals alive at the check, yet need not have been tolerated: survival well below the control is almost never listed, so the zero probably covers shortened survival too. Counts of survivors are from the toxicity check (mostly the fifth day) where no day follows; animals may have died later. Schedule codes are those of the source, read here as Q, the interval in days (D) or hours (H), X, the number of doses. Some doses were run more than once; the values are given in rising order. For survival time, the PubChem record calls one and a half times the control and up active, and a quarter to a half above the control has no call in these data; cut-offs in other NCI protocols can differ. Some T/C values are followed by the survivors on the day toxicity was checked, most often the fifth; where neither a count nor a note follows, no animal had died by that day.

Test system: CD2F1 mice, L1210 leukemia ip, survival T/C
Test: NCI In Vivo Anticancer Drug Screen. Data for tumor model L1210 Leukemia (intraperitoneal) in CD2F1 (CDF1) mice
Settings: T/C endpoint: mean survival time, higher T/C = longer survival
In short: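 Vehicle-treated tumor-bearing mice served as controls (C) for compound-treated mice (T). Reported figure is T divided by C.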

[1] = dose: 25.0 mg/kg/injection, schedule: Q01DX001 (ip), vehicle: DMSO
[2] = dose: 50.0 mg/kg/injection, schedule: Q01DX001 (ip), vehicle: DMSO
[3] = dose: 100.0 mg/kg/injection, schedule: Q01DX001 (ip), vehicle: DMSO
[4] = dose: 125.0 mg/kg/injection, schedule: Q01DX001 (ip), vehicle: DMSO
[5] = dose: 200.0 mg/kg/injection, schedule: Q01DX001 (ip), vehicle: DMSO
[6] = dose: 250.0 mg/kg/injection, schedule: Q01DX001 (ip), vehicle: DMSO
[7] = dose: 400.0 mg/kg/injection, schedule: Q01DX001 (ip), vehicle: DMSO
[8] = dose: 500.0 mg/kg/injection, schedule: Q01DX001 (ip), vehicle: DMSO
[9] = dose: 600.0 mg/kg/injection, schedule: Q01DX001 (ip), vehicle: DMSO
[10] = dose: 100.0 mg/kg/injection, schedule: Q01DX009 (ip), vehicle: Klucel (hydroxypropylcellulose) (HPC)
[11] = dose: 200.0 mg/kg/injection, schedule: Q01DX009 (ip), vehicle: Klucel (hydroxypropylcellulose) (HPC)
[12] = dose: 31.25 mg/kg/injection, schedule: Q01DX001 (ip), vehicle: DMSO
[13] = dose: 62.5 mg/kg/injection, schedule: Q01DX001 (ip), vehicle: DMSO
[14] = dose: 266.0 mg/kg/injection, schedule: Q01DX001 (ip), vehicle: DMSO
[15] = dose: 400.0 mg/kg/injection, schedule: Q01DX001 (ip), vehicle: DMSO, evaluated on day 25
[16] = dose: 400.0 mg/kg/injection, schedule: Q01DX001 (ip), vehicle: DMSO, evaluated on day 60
[17] = dose: 900.0 mg/kg/injection, schedule: Q01DX001 (ip), vehicle: DMSO

## CN(C)P(=O)(O)N(CCCl)CCCl.NC1CCCCC1
[1]
  T/C: 102 % of control
[2]
  T/C: 102 % of control
[3]
  T/C: 97 % of control
[4]
  T/C: 98 % of control
[5]
  T/C: 105 % of control
[6]
  T/C: 104 % of control
[7]
  T/C: 105 % of control
[8]
  T/C: 107 % of control [5 of 6 alive]
[9]
  T/C: 105 % of control
dose: 1000.0 mg/kg/injection, schedule: Q01DX001 (ip), vehicle: DMSO
  survivor count: 0 of 6

## O=[As](O)(c1ccc(Cl)cc1)C1CCCCC1O (stereo unspecified)
dose: 6.25 mg/kg/injection, schedule: Q04DX003 (ip), vehicle: saline
  T/C: 98 % of control
dose: 12.5 mg/kg/injection, schedule: Q04DX003 (ip), vehicle: saline
  T/C: 101 % of control
dose: 25.0 mg/kg/injection, schedule: Q04DX003 (ip), vehicle: saline
  T/C: 118 % of control

## CCC(C)NCCCl (stereo unspecified)
dose: 100.0 mg/kg/injection, schedule: Q01DX009 (ip), vehicle: saline
  T/C: 107 % of control
dose: 200.0 mg/kg/injection, schedule: Q01DX009 (ip), vehicle: saline
  T/C: 111 % of control [2 of 3 alive]
dose: 400.0 mg/kg/injection, schedule: Q01DX009 (ip), vehicle: saline
  survivor count: 0 of 3

## ClP1(Cl)=NP(Cl)(Cl)=NP(Cl)(Cl)=NP(Cl)(Cl)=N1
dose: 12.5 mg/kg/injection, schedule: Q01DX009 (ip), vehicle: Klucel (hydroxypropylcellulose) (HPC)
  T/C: 101 and 104 % of control
dose: 25.0 mg/kg/injection, schedule: Q01DX009 (ip), vehicle: Klucel (hydroxypropylcellulose) (HPC)
  T/C: 97 and 101 % of control
dose: 50.0 mg/kg/injection, schedule: Q01DX009 (ip), vehicle: Klucel (hydroxypropylcellulose) (HPC)
  T/C: 100 and 104 % of control
[10]
  T/C: 104 % of control
  survivor count: 3 of 6
[11]
  T/C: 103 % of control
  survivor count: 3 of 6
dose: 400.0 mg/kg/injection, schedule: Q01DX009 (ip), vehicle: Klucel (hydroxypropylcellulose) (HPC)
  survivor count: 3 of 6 and 4 of 6

## NC1CCCCC1.O=P(O)(N(CCCl)CCCl)N1CC1
dose: 25.0 mg/kg/injection, schedule: Q01DX001 (ip), vehicle: DMSO, evaluated on day 45
  T/C: 101 % of control
dose: 25.0 mg/kg/injection, schedule: Q01DX001 (ip), vehicle: DMSO, evaluated on day 60
  T/C: 116 % of control
dose: 25.0 mg/kg/injection, schedule: Q01DX001 (ip), vehicle: other
  T/C: 113 % of control
dose: 25.0 mg/kg/injection, schedule: Q01DX001 (ip), vehicle: water
  T/C: 126 % of control
[12]
  T/C: 146 % of control
dose: 50.0 mg/kg/injection, schedule: Q01DX001 (ip), vehicle: DMSO, evaluated on day 45
  T/C: 158 % of control
dose: 50.0 mg/kg/injection, schedule: Q01DX001 (ip), vehicle: DMSO, evaluated on day 60
  T/C: 116 % of control
dose: 50.0 mg/kg/injection, schedule: Q01DX001 (ip), vehicle: other
  T/C: 129 % of control
dose: 50.0 mg/kg/injection, schedule: Q01DX001 (ip), vehicle: water
  T/C: 151 % of control
[13]
  T/C: 173 % of control
dose: 100.0 mg/kg/injection, schedule: Q01DX001 (ip), vehicle: DMSO, evaluated on day 45
  T/C: 121 % of control
dose: 100.0 mg/kg/injection, schedule: Q01DX001 (ip), vehicle: DMSO, evaluated on day 60
  T/C: 140 % of control
dose: 100.0 mg/kg/injection, schedule: Q01DX001 (ip), vehicle: other
  T/C: 148 % of control
dose: 100.0 mg/kg/injection, schedule: Q01DX001 (ip), vehicle: water
  T/C: 177 % of control
dose: 125.0 mg/kg/injection, schedule: Q01DX001 (ip), vehicle: DMSO, evaluated on day 30
  T/C: 144 % of control [5 of 6 alive]
dose: 125.0 mg/kg/injection, schedule: Q01DX001 (ip), vehicle: DMSO, evaluated on day 60
  T/C: 135 % of control
dose: 200.0 mg/kg/injection, schedule: Q01DX001 (ip), vehicle: DMSO, evaluated on day 45
  T/C: 147 % of control
dose: 200.0 mg/kg/injection, schedule: Q01DX001 (ip), vehicle: DMSO, evaluated on day 60
  T/C: 379 % of control
dose: 200.0 mg/kg/injection, schedule: Q01DX001 (ip), vehicle: other
  T/C: 175 % of control [5 of 6 alive]
dose: 200.0 mg/kg/injection, schedule: Q01DX001 (ip), vehicle: water
  survivor count: 2 of 6
[6]
  T/C: 142 % of control
  survivor count: 2 of 6
[14]
  T/C: 101 % of control
[15]
  T/C: 106 % of control
dose: 400.0 mg/kg/injection, schedule: Q01DX001 (ip), vehicle: DMSO, evaluated on day 45
  T/C: 210 % of control
[16]
  T/C: 490 % of control
dose: 400.0 mg/kg/injection, schedule: Q01DX001 (ip), vehicle: other
  T/C: 302 % of control
dose: 400.0 mg/kg/injection, schedule: Q01DX001 (ip), vehicle: water
  survivor count: 0 of 6
[8]
  T/C: 456 % of control
  survivor count: 0 of 6
[9]
  T/C: 103 % of control
[17]
  survivor count: 1 of 6

## CC(=O)N(CCCc1c(C)nc(N)[nH]c1=O)Cc1ccccn1.O=[N+]([O-])c1cc([N+](=O)[O-])c(O)c([N+](=O)[O-])c1
dose: 100.0 mg/kg/injection, schedule: Q01DX001 (ip), vehicle: saline with Tween-80
  T/C: 95 % of control
dose: 200.0 mg/kg/injection, schedule: Q01DX001 (ip), vehicle: saline with Tween-80
  T/C: 90 % of control
dose: 400.0 mg/kg/injection, schedule: Q01DX001 (ip), vehicle: saline with Tween-80
  T/C: 87 % of control

## C=C1CNP(=O)(N(CCCl)CCCl)OC1 (stereo unspecified)
dose: 15.62 mg/kg/injection, schedule: Q01DX001 (ip), vehicle: DMSO
  T/C: 120 % of control
[12]
  T/C: 127 % of control
[13]
  T/C: 125 % of control
[4]
  survivor count: 0 of 6
[6]
  survivor count: 0 of 6
[8]
  survivor count: 0 of 6

## COC1OC(CNCCBr)C2OC(C)(C)OC12 (stereo unspecified)
dose: 25.0 mg/kg/injection, schedule: Q01DX001 (ip), vehicle: saline
  T/C: 103 % of control
dose: 50.0 mg/kg/injection, schedule: Q01DX001 (ip), vehicle: saline
  T/C: 121 % of control
dose: 100.0 mg/kg/injection, schedule: Q01DX001 (ip), vehicle: saline
  T/C: 122 % of control
dose: 200.0 mg/kg/injection, schedule: Q01DX001 (ip), vehicle: saline
  T/C: 116 % of control

## CN(C)P(=O)(OCCC=O)N(CCCl)CCCl (stereo unspecified)
[1]
  T/C: 100 % of control
[2]
  T/C: 112 % of control
[3]
  T/C: 110 % of control
[5]
  T/C: 141 % of control
[14]
  T/C: 109 % of control
[15]
  T/C: 109 % of control
[16]
  T/C: 165 % of control
[9]
  T/C: 111 % of control
[17]
  T/C: 122 % of control [4 of 6 alive]

## Cn1cc(N(CCCl)CCCl)c(=O)[nH]c1=O
dose: 2.73 mg/kg/injection, schedule: Q04DX003 (ip), vehicle: other
  T/C: 146 % of control
dose: 4.15 mg/kg/injection, schedule: Q04DX003 (ip), vehicle: other
  T/C: 151 % of control
dose: 6.22 mg/kg/injection, schedule: Q04DX003 (ip), vehicle: other
  T/C: 89 % of control

## O=P(NO)(OCc1ccccc1)N(CCCl)CCCl (stereo unspecified)
[1]
  T/C: 97 % of control
[2]
  T/C: 100 % of control
[3]
  T/C: 100 % of control
[5]
  T/C: 97 % of control
[7]
  T/C: 105 % of control
